Values of other authors as cited in patent publication US20080138411A1, “Modified Release Formulations Of Selective Serotonin Re-Uptake Inhibitors” (priority 2002, published 2008).
Where two headings read alike, the source gives them in different places.

Assays:
[1] = in vivo; cited from earlier work
[2] = cited from earlier work; for time to reach peak plasma concentration (Tmax): tablet

SMILES	effect of food on systemic bioavailability [1]	Tmax ([2]; oral concentrate, single dose without food)	time to reach peak plasma concentration (Tmax) ([2]; single dose with food)	time to reach peak plasma concentration (Tmax) ([2]; single dose without food)
CNCCC(Oc1ccc(C(F)(F)F)cc1)c1ccccc1.Cl (racemic) [Fluoxetine, (±)-N-methyl-3-phenyl-3-[(α,α,α-trifluoro-p-tolyl)oxy)propylamine hydrochloride]	does not appear to affect			
CN[C@H]1CC[C@@H](c2ccc(Cl)c(Cl)c2)c2ccccc21.Cl [Sertraline, (1S-cis)-4(3,4-dichlorophenyl)-1,2,3,4-tetrahydro-N-methyl-1-naphthalenamine hydrochloride]		5.9 h	5.5 h	8 h
